Reference: patent US20260258032A1, “TYROSINE KINASE 2 INHIBITORS AND USES THEREOF” (BIOGEN MA INC., priority 2022, published 2026)

Chains of the proteins cited; added tags and fusions are not shown. Residues count along the entry.
UniProt P29597, 575-876 limits assumed: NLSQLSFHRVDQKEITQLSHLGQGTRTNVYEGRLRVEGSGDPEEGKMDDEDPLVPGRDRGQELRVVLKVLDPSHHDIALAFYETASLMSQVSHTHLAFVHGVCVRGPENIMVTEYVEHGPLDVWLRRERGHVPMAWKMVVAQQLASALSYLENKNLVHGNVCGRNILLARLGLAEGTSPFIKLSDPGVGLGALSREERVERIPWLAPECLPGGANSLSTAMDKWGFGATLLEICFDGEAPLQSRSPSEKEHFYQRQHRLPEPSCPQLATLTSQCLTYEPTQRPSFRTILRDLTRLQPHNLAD

Experiments:
JH2 domain of human Tyk2 = JH2 domain of human Tyk2 (Homo sapiens, UniProt P29597); test: JH2 biochemical assay (TR-FRET probe displacement); details: read-out: TYK2-JH2 IC50
Protocol: The inhibitory potency of compounds of the disclosure against the kinase activity of recombinantly generated JH2 domain of human Tyk2 was evaluated in a plate-based assay using a TR-FRET assay platform. Briefly, 2 nM of recombinant JH2 domain [10×His-tagged TYK2 JH2 domain (amino acid 575-876)] was combined with 2 nM probe ((S)-6-amino-9-(2-carboxy-4-((1-(3-(8-methyl-5-(methylamino)-8H-imidazo[4,5-d]thiazolo[5,4-b]pyridin-2-yl)phenyl)ethyl)carbamoyl)phenyl)-3-iminio-5-sulfo-3H-xanthene-4-sulfonate), 0.1 nM Tb-labeled anti-His antibody, and compounds of disclosure for 60 minutes. Compounds are tested at either […] top concentration, 10 points of 3-fold dilution. The TR-FRET signal […] by compounds and signal was calculated by taking the ratio of fluorescence at 520 nm and 495 nm. The data was normalized and the percent activity versus log concentration of compound was fitted with a 4-parameter logistic model to generate IC50 curves.

[1] = tested on: Tyk2 kinase activity on STAT4; test: pSTAT4 cell assay (MSD, NK92 cells); details: read-out: TYK2, compounds 1 hr, then stimulated 15 minutes
Protocol: The inhibitory potency of compounds of the disclosure against the Tyk2 kinase activity on STAT4 was evaluated using an MSD-platform plate-based assay format. NK92 cells natively expressing STAT4 and Tyk2 were serum-starved to reduce background phosphorylation levels, then cells were treated compounds for 1 hr with a 10-point four-fold dilution series starting at 10 μM. Cells were then stimulated with 30 ng/mL IL2 for 15 minutes. Cells were lysed and […] levels were quantitated using an MSD plate-based assay with anti-STAT4 antibodies. The data were normalized and the percent activity versus log concentration of compound were fitted with a 4-parameter logistic model to generate to generate IC50 curves.

`CC(=O)Nc1cc2c(cn1)C1(CC1)CN2c1cc(C)nc(N2C[C@H]3CN(C)C[C@H]3C2)n1` was tested, and the IC50 (JH2 domain of human Tyk2) was 100 to 1000 nM and the IC50 [1] was greater than 1000 nM.

The match of structure and compound is tentative.
